# Values quoted from earlier work in patent US9403997B2, “Non-VOC neutralizing agents for coatings” (Hercules Incorporated, priority 2012, dated 2016).
# At least one compound was matched to its structure with a doubt left.
# Conditions: cited from earlier work
smiles,measurement,value
C[C@H](N)C(=O)O [Alanie],pKa2,9.9
